Laboratory results as given in publication PMC2585060.
Positions count from the first letter of the chain named. Results are given in words; binding and its absence hold for the method and conditions named. In cells and extracts the contact can be indirect. Some results given as binding are weak or reduced against the parent protein; the word gives no strength. Sequences can lack the tags named with a protein.

Columns and labels:
[1] = molecular target: T1, GST-tagged β3 integrin cytoplasmic tail Y747A (UniProt O54890); test: pull-down; 5 µg recombinant GST-β integrin tails incubated overnight with 500 µg IEC lysate (50 mM Tris pH 7.4, 150 mM NaCl, 1 mM EDTA, 1% Triton-X-100), precipitated with glutathione beads, western blot for Kindlin-1 and GST; also done with keratinocyte lysates; only the target purified
T1 sequence: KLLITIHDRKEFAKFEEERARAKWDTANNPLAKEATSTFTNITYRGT

[2] = molecular target: T2, GST-tagged β3 integrin cytoplasmic tail Y759A (UniProt O54890); test: as above
T2 sequence: T1 sequence with A32Y, Y44A

binding [1]: binds
binding [2]: no binding
B1: Kindlin-1 (protein, UniProt P59113 1-677)
chain: MLSSGDLTSASWELVVRVDHANGEQQTEITLRVSGDLHIGGVMLKLVEQMNIAQDWSDYALWWEQKRCWLLKTHWTLDKCGVQADANLLFTPQHKMLRLRLPNAKTVRLRVSFSAVVFKAVADICKVLNIRRPEELSLLKPSSDYCKKKKKKEKNSKEPVIEDILNLESSSTSSGSPVSPGLYSKTMTPTYDPINGTPALSTMTWFGDSPLTEQNCSVLAFSQPPPSPDVLADMFQPRSLVDKAKMNAGWLDSSRSLMEQSIQEDEQLQLRFKYYTFFDLNPKYDAVRINQLYEQARWAVLLEEIDCTEEEMLIFAALQYHISKLSQCAEIQDFATKSEVDEVEAALSSLEVTLEGGKADNTLEDITDIPKLADYLKLFRPKKLMLKACKQYWFVFKDTSIAYFKNKELEQGEPIEKLNLRGCEIVPDVNVSGRKFGIKLLIPVADGMNEVYLRCDHEDQYARWMAACILASKGKTMADSSYQPEVISILSFLKMKNRNSSPLVASSLENMDMNPECLVSPCCAKKHKSKQLAARILEAHHNVAQMPLVEAKLQFIQAWQSLPEFGLTYYLVRFKGSKKDDILGVAYNRLIRIDAVTGIPVTTWRFANMKQWNVNWEIRQVAIEFDQNVSIAFTCLSADCKIVHEYIGGYIFLSTRSKDQNETLDEDLFHKLTGGQD
